Experimental data: PubChem BioAssay AID1508597 (Cure First, 2020)

Test: 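Genes whose silencing sensitises or protects ovarian cancer cells against rucaparib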 (primary screen)
Cells: human ovarian carcinoma lines grown from tumours: OCI-P5x (papillary serous) and OCI-C5x (clear cell)
Knock-down reagent: siRNA pool against human genes, 1.25 pmol siRNA per well
Duration: 72 h or 96 h, depending on the cell culture
Conditions: rucaparib 20 µM (about IC30) or vehicle, present until read-out
Rucaparib or vehicle: Rucaparib
Cell line: OCI-C5x (clear cell)
Measured: 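ATP luminescence measured at 72 or 96 h according to the culture, then normalised and expressed as percent viability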
Direction: viability, normalised: higher = more viable cells remaining
Call rule: 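a well counts as a hit if its normalised viability is under 80 percent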
Calls: active = viability under 80%; inactive = viability 80% or more
Shown is a random part of the about 2,100 reagents, in one setting of the screen. 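Calls flag viability under 80% in either arm, not effects specific to rucaparib; the reference for percent is not stated.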 A number with no mark means an inactive call. Reagents against one gene are numbered here. A reagent listed more than once was tested more than once; the source does not tell the runs apart. Reagent sequences are not shown. Not given: the 100% reference.

gene knocked down	reagent	technical replicate	viability, normalised (%)
MASTL	1	1	60.5 (active)
MASTL	1	2	77.6 (active)
MASTL	1	3	64.4 (active)
DNAJC5	1	1	81.9
DNAJC5	1	2	68.6 (active)
DNAJC5	1	3	81.5
DPF1	1	1	56.4 (active)
DPF1	1	2	50.7 (active)
DPF1	1	3	42.9 (active)
PPARGC1A	1	1	52.6 (active)
PPARGC1A	1	2	37.9 (active)
PPARGC1A	1	3	38.5 (active)
NME8	1	1	44.7 (active)
NME8	1	1	50.4 (active)
NME8	1	2	46.6 (active)
NME8	1	2	58.1 (active)
NME8	1	3	32.6 (active)
NME8	1	3	67.1 (active)
MECOM	1	1	48.7 (active)
MECOM	1	2	51.7 (active)
MECOM	1	3	54.9 (active)
MECOM	2	1	18 (active)
MECOM	2	2	28.2 (active)
MECOM	2	3	26.2 (active)
PHF11	1	1	50.3 (active)
PHF11	1	2	48.1 (active)
PHF11	1	3	44.8 (active)
BCL6	1	1	54.9 (active)
BCL6	1	2	40.4 (active)
BCL6	1	3	42.4 (active)
ELP3	1	1	37 (active)
ELP3	1	2	43.8 (active)
ELP3	1	3	32.3 (active)
PCDHB3	1	1	42.3 (active)
PCDHB3	1	2	56.5 (active)
PCDHB3	1	3	48 (active)
MARK2	1	1	82.6
MARK2	1	2	106
MARK2	1	3	64.8 (active)
PROX1	1	1	38.1 (active)
PROX1	1	2	30.4 (active)
PROX1	1	3	35.8 (active)
DMPK	1	1	72 (active)
DMPK	1	2	66.8 (active)
DMPK	1	3	65.6 (active)
POLR1B	1	1	49.2 (active)
POLR1B	1	2	54.2 (active)
POLR1B	1	3	48 (active)

No new results follow: 11 of the entries above.
gene knocked down	reagent	technical replicate	viability, normalised (%)
MECOM	1	2	51.7 (active)
MECOM	1	3	54.9 (active)
MECOM	2	1	18 (active)
MECOM	2	2	28.2 (active)
MECOM	2	3	26.2 (active)
PHF11	1	1	50.3 (active)
PHF11	1	2	48.1 (active)
PHF11	1	3	44.8 (active)
BCL6	1	1	54.9 (active)
BCL6	1	2	40.4 (active)
BCL6	1	3	42.4 (active)

The results go on.
gene knocked down	reagent	technical replicate	viability, normalised (%)
PHF13	1	1	51.6 (active)
PHF13	1	2	32.8 (active)
PHF13	1	3	32.9 (active)
RAD51C	1	1	41.9 (active)
RAD51C	1	2	52.4 (active)
RAD51C	1	3	67.8 (active)
ELANE	1	1	43 (active)
ELANE	1	2	49.3 (active)
ELANE	1	3	45.9 (active)
DUSP1	1	1	37.2 (active)
DUSP1	1	2	31 (active)
DUSP1	1	3	47.5 (active)
TADA3	1	1	78.3 (active)
TADA3	1	2	69.4 (active)
TADA3	1	3	59.2 (active)
NOTCH3	1	1	63.3 (active)
NOTCH3	1	2	67.1 (active)
NOTCH3	1	3	56 (active)
CSNK1G1	1	1	37.6 (active)
CSNK1G1	1	2	35.7 (active)
CSNK1G1	1	3	42.6 (active)
MAPKAPK2	1	1	44.7 (active)
MAPKAPK2	1	2	58 (active)
MAPKAPK2	1	3	43.1 (active)
STK3	1	1	52.2 (active)
STK3	1	2	38.5 (active)
STK3	1	3	37.9 (active)
